Experimental data taken from paper PMC9339186.
No constants are given. Whether binding was seen depends on the method and setting. For some of these results: Binding seen in cells or lysates may run through a third protein. Some binding calls cover weakened binding; strength is not graded here. For some of these results: Where a sequence is shown, tags or fusion partners need not be part of it.

Tests used:
[1] = target: T1, TANK binding kinase 1 (TBK1; endogenous, mouse bone marrow-derived macrophages) (mouse (endogenous in BMDM)) (UniProt Q9WUN2); assay: co-IP
T1 sequence: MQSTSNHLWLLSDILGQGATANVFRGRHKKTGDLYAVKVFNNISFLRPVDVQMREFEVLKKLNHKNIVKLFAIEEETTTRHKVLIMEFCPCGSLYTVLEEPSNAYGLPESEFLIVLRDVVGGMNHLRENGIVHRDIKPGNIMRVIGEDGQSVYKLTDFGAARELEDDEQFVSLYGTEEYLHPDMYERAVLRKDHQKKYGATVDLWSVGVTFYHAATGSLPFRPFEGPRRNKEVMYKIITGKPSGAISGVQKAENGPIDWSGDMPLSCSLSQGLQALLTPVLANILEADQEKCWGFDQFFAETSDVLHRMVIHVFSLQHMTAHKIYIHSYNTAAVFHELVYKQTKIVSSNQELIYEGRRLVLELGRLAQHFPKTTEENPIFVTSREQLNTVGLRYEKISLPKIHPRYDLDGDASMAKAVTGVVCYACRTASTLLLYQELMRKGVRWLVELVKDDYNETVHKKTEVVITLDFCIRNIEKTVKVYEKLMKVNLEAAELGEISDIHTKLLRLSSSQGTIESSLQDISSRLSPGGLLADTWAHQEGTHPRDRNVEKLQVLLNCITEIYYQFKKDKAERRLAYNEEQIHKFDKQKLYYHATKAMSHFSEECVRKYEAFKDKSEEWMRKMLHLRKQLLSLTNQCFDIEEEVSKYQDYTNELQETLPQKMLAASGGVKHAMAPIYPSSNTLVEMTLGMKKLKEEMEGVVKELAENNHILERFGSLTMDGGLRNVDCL

[2] = target: T2, protein phosphatase, magnesium-dependent 1A (PPM1A; endogenous, mouse bone marrow-derived macrophages) (mouse (endogenous in BMDM)) (UniProt P49443); assay: co-IP; endogenous proteins; whole-cell lysates of WT and TRIM18 KO BMDM (resting) incubated 2 h with anti-PPM1A or IgG, protein A/G beads 4 h, immunoblot
T2 sequence: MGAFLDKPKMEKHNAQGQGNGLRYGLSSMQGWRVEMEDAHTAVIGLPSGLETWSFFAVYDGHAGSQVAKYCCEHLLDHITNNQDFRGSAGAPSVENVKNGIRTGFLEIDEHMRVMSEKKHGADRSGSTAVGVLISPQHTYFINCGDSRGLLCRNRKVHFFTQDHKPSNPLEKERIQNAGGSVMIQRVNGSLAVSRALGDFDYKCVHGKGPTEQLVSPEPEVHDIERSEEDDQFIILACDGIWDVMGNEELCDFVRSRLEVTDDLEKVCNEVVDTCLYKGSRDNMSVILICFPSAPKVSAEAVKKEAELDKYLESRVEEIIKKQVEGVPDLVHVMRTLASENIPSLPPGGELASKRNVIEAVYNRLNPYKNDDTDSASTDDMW

[3] = target: T3, Myc-tagged recombinant TRIM18 (UniProt O15344); assay: co-IP; in vitro: purified HA-tagged protein (full-length or truncation) incubated 2 h with purified Myc-tagged partner, beads added for 2 h, immunoprecipitation with anti-Myc, immunoblot with anti-HA or anti-Myc; both purified
T3 sequence: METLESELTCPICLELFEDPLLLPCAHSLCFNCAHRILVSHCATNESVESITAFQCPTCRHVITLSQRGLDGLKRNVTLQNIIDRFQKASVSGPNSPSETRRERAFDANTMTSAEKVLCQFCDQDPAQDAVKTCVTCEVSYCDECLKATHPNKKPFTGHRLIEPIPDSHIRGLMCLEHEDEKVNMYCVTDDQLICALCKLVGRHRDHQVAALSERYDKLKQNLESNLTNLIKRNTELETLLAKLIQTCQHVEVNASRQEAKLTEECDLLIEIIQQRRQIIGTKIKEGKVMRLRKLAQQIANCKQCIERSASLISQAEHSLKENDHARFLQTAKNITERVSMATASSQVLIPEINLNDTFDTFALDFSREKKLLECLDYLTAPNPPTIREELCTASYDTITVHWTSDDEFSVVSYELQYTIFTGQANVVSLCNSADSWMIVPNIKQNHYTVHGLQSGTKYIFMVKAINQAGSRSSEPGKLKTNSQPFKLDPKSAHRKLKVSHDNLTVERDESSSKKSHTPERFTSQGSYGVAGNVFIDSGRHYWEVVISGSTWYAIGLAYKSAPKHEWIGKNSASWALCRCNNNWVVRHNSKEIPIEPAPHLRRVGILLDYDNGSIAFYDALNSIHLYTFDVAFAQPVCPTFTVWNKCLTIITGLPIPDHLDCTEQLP

[4] = target: T4, Myc-tagged recombinant PPM1A (UniProt P35813); assay: as above
T4 sequence: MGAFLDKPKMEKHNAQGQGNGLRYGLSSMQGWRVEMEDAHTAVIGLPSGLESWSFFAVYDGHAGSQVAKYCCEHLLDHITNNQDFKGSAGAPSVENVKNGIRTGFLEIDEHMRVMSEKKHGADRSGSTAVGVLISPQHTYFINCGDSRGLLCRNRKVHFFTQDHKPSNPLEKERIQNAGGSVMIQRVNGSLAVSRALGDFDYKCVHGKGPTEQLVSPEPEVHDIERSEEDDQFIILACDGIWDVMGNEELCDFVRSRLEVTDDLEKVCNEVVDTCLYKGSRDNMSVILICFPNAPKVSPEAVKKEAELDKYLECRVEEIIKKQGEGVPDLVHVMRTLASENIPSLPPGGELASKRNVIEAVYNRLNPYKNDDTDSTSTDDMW

B1: TRIM18 (endogenous, mouse bone marrow-derived macrophages) (protein, UniProt O70583 1-680)
chain: METLESELTCPICLELFEDPLLLPCAHSLCFNCAHRILVSHCATNEPVESINAFQCPTCRHVITLSQRGLDGLKRNVTLQNIIDRFQKASVSGPNSPSETRRERAFDANTMSSAEKVLCQFCDQDPAQDAVKTCVTCEVSYCDECLKATHPNKKPFTGHRLIEPIPDSHIRGLMCLEHEDEKVNMYCVTDDQLICALCKLVGRHRDHQVAALSERYDKLKQNLESNLTNLIKRNTELETLLAKLIQTCQHVEVNASRQEAKLTEECDLLIEIIQQRRQIIGTKIKEGKVIRLRKLAQQIANCKQCLERSASLISQAEHSLKENDHARFLQTAKNITERVSMATASSQVLIPEINLNDTFDTFALDFSREKKLLECLDYLTAPNPPAIREELCTASYDTITVHWTSEDEFSVVSYELQYTIFTGQANVVNVACDGTCLLGSAGLCNSADSWMIVPNIKQNHYTVHGLQSGTKYIFTVKAINQAGSRSSEPGKLKTNSQPFRLDPKSAHRKLKVSHDNLTVERDESSSKKSHAPERFAGQGSYGVAGNVFIDSGRHYWEVVTSGSTWYAIGLAYRSAPKHEWIGKNAASWALCRCHNHWAVRHDGKETPIAPAPHLRRVGVLLDYDNGSIAFYDALSSVHLHTFHAALAQPVCPTFTVWNKCLTIVTGLPIPDHLDCTEQRP
**Q.** Which binding [1] does the source give for B1 here?
**A.** binds

**Q.** What about the binding [2] of the same binder?
**A.** binds

B2: HA-tagged recombinant full-length PPM1A (enzyme, UniProt P35813 1-382)
chain: MGAFLDKPKMEKHNAQGQGNGLRYGLSSMQGWRVEMEDAHTAVIGLPSGLESWSFFAVYDGHAGSQVAKYCCEHLLDHITNNQDFKGSAGAPSVENVKNGIRTGFLEIDEHMRVMSEKKHGADRSGSTAVGVLISPQHTYFINCGDSRGLLCRNRKVHFFTQDHKPSNPLEKERIQNAGGSVMIQRVNGSLAVSRALGDFDYKCVHGKGPTEQLVSPEPEVHDIERSEEDDQFIILACDGIWDVMGNEELCDFVRSRLEVTDDLEKVCNEVVDTCLYKGSRDNMSVILICFPNAPKVSPEAVKKEAELDKYLECRVEEIIKKQGEGVPDLVHVMRTLASENIPSLPPGGELASKRNVIEAVYNRLNPYKNDDTDSTSTDDMW
**Q.** With B2 as the binder, how does the binding [3] read?
**A.** binds

B3: HA-tagged full-length TRIM18 (protein, UniProt O15344 1-667)
chain: METLESELTCPICLELFEDPLLLPCAHSLCFNCAHRILVSHCATNESVESITAFQCPTCRHVITLSQRGLDGLKRNVTLQNIIDRFQKASVSGPNSPSETRRERAFDANTMTSAEKVLCQFCDQDPAQDAVKTCVTCEVSYCDECLKATHPNKKPFTGHRLIEPIPDSHIRGLMCLEHEDEKVNMYCVTDDQLICALCKLVGRHRDHQVAALSERYDKLKQNLESNLTNLIKRNTELETLLAKLIQTCQHVEVNASRQEAKLTEECDLLIEIIQQRRQIIGTKIKEGKVMRLRKLAQQIANCKQCIERSASLISQAEHSLKENDHARFLQTAKNITERVSMATASSQVLIPEINLNDTFDTFALDFSREKKLLECLDYLTAPNPPTIREELCTASYDTITVHWTSDDEFSVVSYELQYTIFTGQANVVSLCNSADSWMIVPNIKQNHYTVHGLQSGTKYIFMVKAINQAGSRSSEPGKLKTNSQPFKLDPKSAHRKLKVSHDNLTVERDESSSKKSHTPERFTSQGSYGVAGNVFIDSGRHYWEVVISGSTWYAIGLAYKSAPKHEWIGKNSASWALCRCNNNWVVRHNSKEIPIEPAPHLRRVGILLDYDNGSIAFYDALNSIHLYTFDVAFAQPVCPTFTVWNKCLTIITGLPIPDHLDCTEQLP
**Q.** With B3 as the binder, how does the binding [4] read?
**A.** binds
